Consider two substances from paper PMC2910502.

Sequences of proteins named here, by UniProt entry; tags and fusion partners are left off.
UniProt Q9R1E0: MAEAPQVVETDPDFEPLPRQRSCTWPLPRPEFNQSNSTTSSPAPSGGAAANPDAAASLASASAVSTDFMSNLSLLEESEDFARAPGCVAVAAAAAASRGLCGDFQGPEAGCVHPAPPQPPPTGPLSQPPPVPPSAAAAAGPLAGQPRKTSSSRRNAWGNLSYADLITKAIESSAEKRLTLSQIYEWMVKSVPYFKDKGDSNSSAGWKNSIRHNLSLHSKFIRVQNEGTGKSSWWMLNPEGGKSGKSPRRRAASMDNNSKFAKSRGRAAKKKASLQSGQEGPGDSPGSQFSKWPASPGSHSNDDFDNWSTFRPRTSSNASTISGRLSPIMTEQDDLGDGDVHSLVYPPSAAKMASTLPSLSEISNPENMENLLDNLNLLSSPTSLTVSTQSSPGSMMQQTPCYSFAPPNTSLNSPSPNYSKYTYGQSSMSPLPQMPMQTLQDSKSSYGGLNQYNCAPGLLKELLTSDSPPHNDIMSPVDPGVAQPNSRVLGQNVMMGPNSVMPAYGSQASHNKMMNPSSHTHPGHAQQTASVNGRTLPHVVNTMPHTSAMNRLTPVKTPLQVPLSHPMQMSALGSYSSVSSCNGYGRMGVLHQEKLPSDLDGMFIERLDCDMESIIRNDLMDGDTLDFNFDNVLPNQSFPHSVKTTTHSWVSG

No constants are given. Whether binding was seen depends on the method and setting. Binding seen in cells or lysates may run through a third protein. Some entries that bind do so weakly or less than the wild type.

Assay [1] addresses T1, SirT1 (mouse (endogenous in MEFs)) (UniProt Q923E4).
T1 sequence: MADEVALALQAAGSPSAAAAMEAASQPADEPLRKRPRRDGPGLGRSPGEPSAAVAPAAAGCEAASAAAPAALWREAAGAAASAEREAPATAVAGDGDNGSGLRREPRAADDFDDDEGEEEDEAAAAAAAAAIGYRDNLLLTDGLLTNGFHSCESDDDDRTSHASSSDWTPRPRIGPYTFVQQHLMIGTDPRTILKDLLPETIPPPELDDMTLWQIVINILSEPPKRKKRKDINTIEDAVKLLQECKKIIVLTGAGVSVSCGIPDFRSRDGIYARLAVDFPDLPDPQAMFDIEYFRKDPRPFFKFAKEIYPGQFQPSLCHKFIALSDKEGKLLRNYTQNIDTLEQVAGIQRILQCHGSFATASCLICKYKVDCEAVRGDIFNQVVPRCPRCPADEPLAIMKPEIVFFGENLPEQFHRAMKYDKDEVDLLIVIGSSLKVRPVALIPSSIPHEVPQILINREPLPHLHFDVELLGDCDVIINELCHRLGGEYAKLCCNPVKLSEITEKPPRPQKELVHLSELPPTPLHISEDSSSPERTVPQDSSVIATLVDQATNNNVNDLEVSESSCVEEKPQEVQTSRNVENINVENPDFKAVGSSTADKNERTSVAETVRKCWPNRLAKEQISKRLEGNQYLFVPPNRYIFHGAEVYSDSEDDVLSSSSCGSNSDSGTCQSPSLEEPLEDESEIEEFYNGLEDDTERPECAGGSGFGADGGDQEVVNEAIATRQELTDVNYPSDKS
The experiment in a line: co-IP; KRIT1-/- MEFs grown to confluence; lysates (~2 mg protein) incubated overnight at 4°C with a SirT1-specific mAb and protein A/G-Sepharose; beads washed 4 times with lysis buffer; Western blot of the immunocomplexes. (In general: A western blot detects proteins with antibodies after separation by electrophoresis.)

The target in assay [2] is T1, SirT1 (mouse (endogenous in MEFs)). The experiment in a line: co-IP; Lv-KRIT1 (K9/6) MEFs grown to confluence; lysates (~2 mg protein) incubated overnight at 4°C with a SirT1-specific mAb and protein A/G-Sepharose; beads washed 4 times with lysis buffer; Western blot of the immunocomplexes.

As for FoxO1 (from UniProt Q9R1E0 1-652), the binding result is listed as “no binding (condition: in KRIT1-/- MEFs)” in assay [1] and “binds” in assay [2].

In the case of KRIT1A (from UniProt Q6S5J6-1 1-736), in assay [2], the binding result is “no binding”.
